The assay deals with T1, Flag-EBAG9 (estrogen receptor-binding fragment-associated antigen 9) (human) (UniProt O00559).
T1 sequence: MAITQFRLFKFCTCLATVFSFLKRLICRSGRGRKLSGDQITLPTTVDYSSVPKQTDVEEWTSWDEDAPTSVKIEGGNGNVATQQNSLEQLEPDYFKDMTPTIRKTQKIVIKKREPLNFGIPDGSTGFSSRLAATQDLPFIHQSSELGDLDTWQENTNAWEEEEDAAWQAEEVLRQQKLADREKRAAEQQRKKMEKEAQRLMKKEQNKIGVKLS
Briefly: co-IP; lysate of 293T cells cotransfected with Flag-EBAG9 and HA-TM9SF1; immunoprecipitated with anti-EBAG9, anti-TM9SF1 or control IgG overnight at 4 °C, protein G-sepharose; lysis and wash buffer 20 mM HEPES pH 7.9, 300 mM NaCl, 1 mM EDTA, 15% glycerol, 0.5% Nonidet P-40; western blot with EBAG9 or TM9SF1 antibody.

By UniProt entry, the sequences of proteins in these tests, tags left out. Residues count along the entry.
UniProt O15321, residues 28-606: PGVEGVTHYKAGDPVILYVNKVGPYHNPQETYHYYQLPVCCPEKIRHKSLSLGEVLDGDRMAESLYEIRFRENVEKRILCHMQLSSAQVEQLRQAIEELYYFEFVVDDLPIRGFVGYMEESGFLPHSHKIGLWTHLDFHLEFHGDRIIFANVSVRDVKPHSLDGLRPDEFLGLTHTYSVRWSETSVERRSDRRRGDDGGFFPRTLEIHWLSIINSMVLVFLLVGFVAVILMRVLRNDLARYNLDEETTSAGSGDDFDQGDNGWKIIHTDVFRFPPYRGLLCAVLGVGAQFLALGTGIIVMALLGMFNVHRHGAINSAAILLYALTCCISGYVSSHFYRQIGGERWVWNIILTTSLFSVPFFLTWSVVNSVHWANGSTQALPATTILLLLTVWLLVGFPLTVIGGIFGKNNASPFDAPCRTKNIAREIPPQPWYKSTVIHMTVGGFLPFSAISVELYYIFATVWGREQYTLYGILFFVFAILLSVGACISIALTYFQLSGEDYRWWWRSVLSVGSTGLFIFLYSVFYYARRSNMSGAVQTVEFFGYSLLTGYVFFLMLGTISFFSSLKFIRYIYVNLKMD

No constants are given. Whether binding was seen depends on the method and setting. Binding seen in cells or lysates may run through a third protein. Some entries that bind do so weakly or less than the wild type. Tags and fused reporters may be left off the sequences shown.

Turning to “HA-TM9SF1 (transmembrane 9 superfamily member 1) (from UniProt O15321 28-606)”, the binding entry is “binds”.
